# The whole screen tested about 360,000 compounds, of which about 7,500 (2.1%) were called active. This list was built around the results that the source calls inconclusive (neither active nor inactive); the mix of calls is not that of the screen. Calls follow the shape of the dose curve; as a rule, active = well fitted inhibition curve with a large enough effect; inconclusive = small, poorly fitted or top-dose-only effect, or effect the other way; inactive = flat fitted curve, though single readings scatter. Potencies of inconclusive entries are doubtful fits and often do not repeat.
# Assay: Nrf2 qHTS screen for inhibitors; also: nearly all actives have a fitted effect of over 60% in size
# Conditions: A549 ARE-Fluc reporter, luciferase luminescence, 18-24 h; activity change, negative = inhibition: at 46 µM (top of the series)
# Procedure, shortened: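 In this cell-based qHTS, ARE-driven firefly luciferase in A549 cells reports Nrf2 activity; the luminescent signal after BugLite lysis is the measured value, with a prior CellTiter-Fluor read for cell health.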
# % is scaled to controls: 0 for no effect and ±100 for the full control effect; potency is read from the fitted curve at half-maximal effect.
Structure (SMILES),Potency,"activity change, negative = inhibition"
Cc1nc(C(=O)NCc2ccccc2)sc1C1(C)CC(c2ccccc2)=NO1 (stereo unspecified),"inconclusive: 8.2 µM [falling, partial curve, poor fit]",–
COc1ccc(NC(=O)CSc2ccccc2)cn1,"inconclusive: 25.9 µM [activator, single point]",–
Cc1cc([N+](=O)[O-])ccc1NC(=O)CSc1nccn1C,"inconclusive: 3.66 µM [activator, full curve]",–
COc1ccc(F)cc1Cn1nc(C(=O)O)c2ccccc2c1=O,"inconclusive: 1.16 µM [falling, full curve]",–
CCN(CC)S(=O)(=O)c1ccc(S(=O)(=O)Nc2cc3c(cc2C(C)=O)OCO3)cc1,"inconclusive: 8.2 µM [falling, partial curve, poor fit]",–
CN(C)c1ccc(/C=C/C(=O)c2ccc(O)cc2)cc1,active: 5.17 µM,–
O=C(/C=C/c1ccccc1)NCCC1=CCCCC1,"inconclusive: 11.6 µM [activator, partial curve]",–
O=[N+]([O-])c1ccccc1/C=N\Nc1nccs1,–,inactive: -6.82%
C=CCNCC#CCOc1ccc(OC)cc1,"inconclusive: 20.6 µM [activator, partial curve]",–
CCCCN1CCc2c([nH]c3c(C)cccc23)C1=O,"inconclusive: 2.59 µM [activator, full curve, poor fit]",–
Cc1nccc(-c2cc(-c3ccc(Cl)cc3Cl)no2)n1,"inconclusive: 2.59 µM [activator, full curve]",–
O=C(OCC#CCSc1nnc(-c2ccc(Cl)cc2)o1)c1ccc(F)cc1,–,inactive: 8.98%
O/N=C/c1cc(Br)cs1,–,inactive: 0%
CN(Cc1ccccc1F)c1ncnc2sccc12,"inconclusive: 29.1 µM [falling, single point]",–
COc1ccc(-c2ccc3c(c2)C2CC3CCN2C(=O)C2CCCCC2)cc1 (stereo unspecified),–,inactive: -20.3%
CN(CC(=O)Nc1cccc(F)c1)CC(=O)N1CCCCC1,–,inactive: 15.8%
Cc1nn(-c2ccccc2)c(C)c1NC(=O)COc1ccc(Cl)cc1Cl,active: 16.4 µM,–
COc1ccc(S(=O)(=O)c2cn(CC(=O)Nc3ccccc3)c3ccc(Cl)cc3c2=O)cc1,–,inactive: 2.79%
COc1ccccc1NS(=O)(=O)c1cccc(NC(=O)c2cncc(Br)c2)c1,"inconclusive: 6.51 µM [falling, full curve, poor fit]",–
O=C(Cn1nnc(-c2ccccc2NC(=O)c2ccco2)n1)Nc1ccccc1,"inconclusive: 20.6 µM [falling, single point]",–
CC1Cc2ccccc2N1C(=O)CN1CCC(n2nnc3cc(C(F)(F)F)ccc32)CC1 (stereo unspecified),active: 16.4 µM,–
Cc1ccc(S(=O)(=O)N2CCC[C@H]2C(=O)Nc2ccccc2Cl)cc1,"inconclusive: 29.1 µM [falling, single point]",–
Cc1ccccc1C(=O)Nc1nc2c(s1)CC(C(C)(C)C)CC2 (stereo unspecified),"inconclusive: 29.1 µM [activator, single point]",–
O=C(C1CC1)N1N=C(c2ccc(Cl)cc2)CC1(O)C(F)(F)F (stereo unspecified),–,inactive: 0.836%

# Of the compounds above, these contain fluorine.
Structure (SMILES),Potency,"activity change, negative = inhibition"
COc1ccc(F)cc1Cn1nc(C(=O)O)c2ccccc2c1=O,"inconclusive: 1.16 µM [falling, full curve]",–
O=C(OCC#CCSc1nnc(-c2ccc(Cl)cc2)o1)c1ccc(F)cc1,–,inactive: 8.98%
CN(Cc1ccccc1F)c1ncnc2sccc12,"inconclusive: 29.1 µM [falling, single point]",–
CN(CC(=O)Nc1cccc(F)c1)CC(=O)N1CCCCC1,–,inactive: 15.8%
CC1Cc2ccccc2N1C(=O)CN1CCC(n2nnc3cc(C(F)(F)F)ccc32)CC1 (stereo unspecified),active: 16.4 µM,–
O=C(C1CC1)N1N=C(c2ccc(Cl)cc2)CC1(O)C(F)(F)F (stereo unspecified),–,inactive: 0.836%

# Quoted at random: 2 compounds from above.
Structure (SMILES),Potency,"activity change, negative = inhibition"
CN(Cc1ccccc1F)c1ncnc2sccc12,"inconclusive: 29.1 µM [falling, single point]",–
O=[N+]([O-])c1ccccc1/C=N\Nc1nccs1,–,inactive: -6.82%

# Continuation.

Structure (SMILES),Potency,"activity change, negative = inhibition"
COc1cccc(/C=C/C(=O)OCC(=O)c2ccc(C)c(C)c2)c1OC,–,inactive: -14.4%
O=c1[nH]c2ccccc2n2c(=S)[nH]nc12,–,inactive: 5.57%
CC(C)(C)c1nnc(NS(=O)(=O)c2cc(Cl)ccc2Cl)s1,–,inactive: 7.77%
CC(C)(C)C1CCc2c(sc3c2C(=O)NC(c2ccco2)N3)C1 (stereo unspecified),"inconclusive: 5.8 µM [activator, single point]",–
c1csc(-c2nc3ccccc3s2)c1,"inconclusive: 20.6 µM [activator, partial curve]",–
CCc1noc(C)c1C(=O)OCC(=O)Nc1nc(-c2ccc(F)c(F)c2)cs1,"inconclusive: 20.6 µM [falling, single point]",–
Cc1cc(C(=O)CC#N)c(C)n1-c1ccc(OC(F)F)cc1,"inconclusive: 14.6 µM [falling, partial curve, poor fit]",–
CCOC(=O)c1c(C)c(C(=O)NCCc2ccc(OC)cc2)c(C)n1CC,–,inactive: -2.29%
CC(=O)c1c(C)n(-c2cccc(C)c2)c2ccc(OC(=O)COc3ccccc3)cc12,–,inactive: 15.9%
COc1ccc(NS(=O)(=O)c2ccc(C(=O)N(C)Cc3cccs3)cc2)cc1,"inconclusive: 16.4 µM [falling, single point]",–
COc1ccc(CN2C(=O)c3cccnc3C2=O)cc1S(=O)(=O)N1CCOc2ccccc21,"inconclusive: 29.1 µM [falling, single point]",–
O=c1cnn(Cc2ccc(Cl)c(Cl)c2)c2ccccc12,"inconclusive: 32.6 µM [falling, single point]",–
CN1C(=O)C2(OCC(C)([N+](=O)[O-])CO2)c2ccccc21 (stereo unspecified),–,inactive: -19.4%
COC(=O)c1[nH]c2cc(OC)ccc2c1NC(=O)CCN1CCN(c2ccccc2)CC1,–,inactive: -4.67%
CCOc1ccc(CNC(=O)Cn2nc(C)c3sc4ccccc4c3c2=O)cc1,"inconclusive: 14.6 µM [activator, partial curve, poor fit]",–
COc1cc(/C=C2\SC(=S)N(Nc3ncc(C(F)(F)F)cc3Cl)C2=O)ccc1O,"inconclusive: 25.9 µM [falling, partial curve]",–
COc1ccc(-c2cc(C(F)(F)F)nc(NCc3ccco3)n2)cc1OC,–,inactive: -13.7%
O=C(Nc1ccc(S(=O)(=O)NCc2ccco2)cc1)c1ccc2ccccc2n1,"inconclusive: 29.1 µM [falling, single point]",–
Clc1cccc(-c2noc3ncnc(NC4CCCCC4)c23)c1,"inconclusive: 0.116 µM [activator, full curve, poor fit]",–
CN(C(=O)c1cccc(Nc2ccc(-c3ccc4c(c3)OCCO4)nn2)c1)C1CCCCC1,"inconclusive: 1.84 µM [activator, partial curve]",–
Cc1onc(-c2c(Cl)cccc2Cl)c1C(=O)Nc1nc(C(C)(C)C)cs1,"inconclusive: 29.1 µM [falling, single point]",–
O=C(Cn1cc(SCc2cccc(C(F)(F)F)c2)c2ccccc21)N1CCCCCC1,"inconclusive: 25.9 µM [falling, partial curve, poor fit]",–
CCN1/C(=C2/SC(=S)N(C)C2=O)C=Cc2cc(C)ccc21,–,inactive: 7.28%
CCC(C)OC(=O)C[N+](C)(C)CCOC1CC2CCC1(C)C2(C)C (stereo unspecified),–,inactive: 20.3%

Structure (SMILES),Potency,"activity change, negative = inhibition"
COc1nc(NCCN2CCOCC2)nc(Nc2ccccc2)n1,"inconclusive: 25.9 µM [activator, single point]",–
c1ccc2c(c1)Cn1c-2nc2ccccc21,"inconclusive: 23.1 µM [activator, single point]",–
Cc1c(Cl)cccc1NC(=S)NCCc1ccc(C(F)(F)F)cc1,"inconclusive: 18.4 µM [falling, single point]",–
CC1CCN(S(=O)(=O)c2csc(C(=O)Nc3ccccc3)c2)CC1,"inconclusive: 3.66 µM [falling, full curve, poor fit]",–
CN1CCC(=C2c3ccccc3C=Cc3ccccc32)CC1,"inconclusive: 29.1 µM [falling, single point]",–
CCn1c(NCc2ccccn2)nc2ccccc21,"inconclusive: 18.4 µM [activator, single point]",–
COc1ccc2ccccc2c1C(=O)/C=C\c1ccoc1,–,inactive: 11.5%
CCCCc1cc(=O)oc2cc(OCC(=O)N3CCC(C(=O)O)(c4ccccc4)CC3)ccc12,"inconclusive: 3.66 µM [falling, single point]",–
COCCN(CCOC)S(=O)(=O)c1ccc(C(=O)Nc2nc(-c3ccncc3)cs2)cc1,"inconclusive: 23.1 µM [falling, single point]",–
O=C(NCc1cccs1)c1ccc(CSc2nc3ccncc3n2Cc2cccc(F)c2)cc1,"inconclusive: 29.1 µM [falling, single point]",–
CCN(CC)CCCSc1nc2ccccc2s1,"inconclusive: 14.6 µM [activator, partial curve]",–
CC(C)CNS(=O)(=O)c1ccc(OCC(=O)NCc2ccco2)cc1,"inconclusive: 6.51 µM [falling, single point]",–
Cc1nonc1C(=O)N/N=C/c1ccc(O)cc1O,"inconclusive: 14.6 µM [falling, partial curve]",–
O=C1OC(c2ccccc2)(c2ccccc2)N2CCN(C(=O)NCc3ccc(F)cc3)CC12 (stereo unspecified),"inconclusive: 16.4 µM [falling, single point]",–
CCc1cc(S(=O)(=O)N2CCN(C(=O)c3ccco3)CC2)ccc1OC,"inconclusive: 14.6 µM [falling, partial curve]",–
O=C(Nc1cc(Cl)ccc1-n1cncn1)c1cn2ccccc2n1,"inconclusive: 23.1 µM [activator, single point]",–
O=C(c1cc2ccccc2[nH]1)N1O[C@@H]2C=C[C@H]1C2,"inconclusive: 20.6 µM [activator, single point]",–
Cc1sc2ncnc(Sc3nnnn3-c3ccc(Cl)cc3)c2c1C,"inconclusive: 29.1 µM [falling, single point]",–
Cc1cc(NC(=O)CSc2ncnc3sccc23)no1,–,inactive: -4.73%
COC(=O)c1c(NC(=S)Nc2cc(OC)c(Cl)cc2OC)sc2c1CCCCC2,"inconclusive: 13 µM [falling, partial curve]",–
C=Cc1ccc(Cn2c(=O)n(-c3ccccc3C)c(=O)c3c4c(sc32)CN(C(C)=O)CC4)cc1,"inconclusive: 18.4 µM [falling, partial curve, poor fit]",–
OC1CCCN(c2c3c(nc4cc(-c5cccc(F)c5)nn24)CCCC3)C1 (stereo unspecified),"inconclusive: 25.9 µM [falling, single point]",–
Cc1ccc(N(C)S(=O)(=O)c2ccc3[nH]cc(C(=O)O)c(=O)c3c2)cc1C,–,inactive: 3.6%

# Source: PubChem BioAssay AID504444 (National Center for Advancing Translational Sciences (NCATS), 2011)
